Measurements: paper PMC7178511, “Antimicrobial Activity and DNA/BSA Binding Affinity of Polynuclear Silver(I) Complexes with 1,2-Bis(4-pyridyl)ethane/ethene as Bridging Ligands” (Bioinorganic Chemistry and Applications, 2020)

Tested on: C. parapsilosis ATCC 22019
Experiment: Broth microdilution MIC, C. parapsilosis
Type: cell-based, Candida parapsilosis
Conditions: C. parapsilosis versus MRC-5 cells
Protocol: Stock solutions of bpa, bpe, and silver(I) complexes 1–3 were prepared fresh in DMSO (50 mg/mL) and kept at 4°C prior to use. Susceptibility testing of Candida spp. (C. albicans ATCC 10231, C. krusei ATCC 6258, C. parapsilosis ATCC 22019, and C. glabrata ATCC 2001) was performed according to CLSI broth microdilution guidelines (Clinical and Laboratory Standards Institute, Reference Method for Broth Dilution Antifungal Susceptibility Testing of Yeasts—Third Edition: Approved Standard M27-A3; Clinical and Laboratory Standards Institute, Reference Method for Broth Dilution Antifungal Susceptibility Testing of Yeasts: Fourth Informational Supplement M27-S4), in RPMI 1640 medium (Roswell Park Memorial Institute medium) containing 2% glucose (w/v). The highest tested concentration was 500 μg/mL, and the inocula were 1^·\10^5 colony forming units (cfu)/mL.

Compound | selectivity index
C(=C\c1ccncc1)/c1ccncc1.O=S(=O)([O-])C(F)(F)F.[Ag+] [Complex 3, {[Ag(bpe)]CF3SO3}n] | 12.9
O=[N+]([O-])[O-].[Ag+].c1cc(CCc2ccncc2)ccn1 [Complex 1, {[Ag(bpa)]NO3}n] | 12.9
